Data source: PubChem BioAssay AID1259308 (NCATS, 2017)

Test: 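Knock-downs that increase output of a recombinant reporter protein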 (primary screen)
System: human HEK293 embryonic kidney cells stably expressing firefly luciferase (HEK-CMV-Luc2-Hygro)
Reagent: single siRNA against human genes, 0.8 pmol siRNA per well
Timing: 72 h
Measurement: 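Luciferase light (ONE-Glo) measured on one replicate plate set and viability (CellTiter-Glo) on the other, scaled to a negative control siRNA, with robust z-scores and luciferase per cell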
Scale: total luciferase, z-score and total luciferase, % of control: higher = more reporter protein produced; luciferase per cell, z-score: higher = more reporter output per viable cell
Rule for the call: 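An siRNA counts as active if its total luciferase robust z-score exceeds 3; genes with two or more such siRNAs out of three were retested with fresh siRNAs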
Calls: active = raised luciferase; inactive = no rise
The whole screen tested about 59,000 reagents; this is an unselected part. About 1,510 of them (2.6%) count as active. 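Calls use total luciferase alone and ignore viability, so some active siRNAs may act by altering cell number.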 Reagents against one gene are numbered here. Further read-outs or replicates are left out here. Reagent sequences are not shown.

| target | reagent no. | total luciferase, z-score | total luciferase, % of control | luciferase per cell, z-score | outcome |
| --- | --- | --- | --- | --- | --- |
| TP53INP1 | 1 | -2.69 | 28.4 | -2.05 | inactive |
| TP53INP1 | 2 | 2.05 | 123 | 1.77 | inactive |
| TP53INP1 | 3 | -0.86 | 64.8 | -0.864 | inactive |
| WDCP | 1 | -0.552 | 70.9 | -0.339 | inactive |
| WDCP | 2 | 0.423 | 90.3 | 0.505 | inactive |
| WDCP | 3 | -0.194 | 78 | -0.71 | inactive |
| SLC23A1 | 1 | 0.514 | 92.1 | -0.137 | inactive |
| SLC23A1 | 2 | -0.337 | 75.2 | -0.45 | inactive |
| SLC23A1 | 3 | 1.3 | 108 | 0.732 | inactive |
| DCAF8L2 | 1 | 0.412 | 90.1 | 0.256 | inactive |
| DCAF8L2 | 2 | 1.42 | 110 | 1.19 | inactive |
| DCAF8L2 | 3 | 0.398 | 89.8 | 0.992 | inactive |
| GNA15 | 1 | -2 | 42.2 | -2.27 | inactive |
| GNA15 | 2 | -0.639 | 69.2 | -0.266 | inactive |
| GNA15 | 3 | -0.511 | 71.7 | -0.614 | inactive |
| DDX28 | 1 | 0.334 | 88.5 | 0.91 | inactive |
| DDX28 | 2 | 0.944 | 101 | 0.475 | inactive |
| DDX28 | 3 | 3.15 | 144 | 2.67 | active |
| MAP7 | 1 | -0.193 | 78 | 0.13 | inactive |
| MAP7 | 2 | 0.593 | 93.7 | 0.229 | inactive |
| MAP7 | 3 | 0.278 | 87.4 | -0.345 | inactive |
| ZNF502 | 1 | -0.0445 | 81 | -0.629 | inactive |
| ZNF502 | 2 | -0.0733 | 80.4 | 0.0983 | inactive |
| ZNF502 | 3 | -0.574 | 70.5 | -0.497 | inactive |
| WNK1 | 1 | -0.778 | 66.4 | -1.47 | inactive |
| WNK1 | 2 | -1.45 | 53.1 | 2.74 | inactive |
| WNK1 | 3 | 1.13 | 104 | 0.915 | inactive |
| WNK1 | 4 | -0.824 | 65.5 | -1.35 | inactive |
| WNK1 | 5 | -0.486 | 72.2 | 0.669 | inactive |
| WNK1 | 6 | 0.352 | 88.9 | 1.9 | inactive |
| HTR1B | 1 | 1.61 | 114 | 1.3 | inactive |
| HTR1B | 2 | -0.858 | 64.8 | -0.164 | inactive |
| HTR1B | 3 | -1.47 | 52.6 | 0.145 | inactive |
| CFLAR | 1 | -1.29 | 56.2 | 0.442 | inactive |
| CFLAR | 2 | -0.589 | 70.2 | -1.23 | inactive |
| CFLAR | 3 | -0.8 | 66 | -1.43 | inactive |
| ANKRD1 | 1 | 0.83 | 98.4 | 0.614 | inactive |
| ANKRD1 | 2 | 6.65 | 214 | 4.04 | active |
| ANKRD1 | 3 | -1.1 | 60 | -0.373 | inactive |

6 entries already listed, arranged by “total luciferase, z-score”, descending:
| target | reagent no. | total luciferase, z-score | total luciferase, % of control | luciferase per cell, z-score | outcome |
| --- | --- | --- | --- | --- | --- |
| DDX28 | 3 | 3.15 | 144 | 2.67 | active |
| DDX28 | 2 | 0.944 | 101 | 0.475 | inactive |
| DDX28 | 1 | 0.334 | 88.5 | 0.91 | inactive |
| MAP7 | 1 | -0.193 | 78 | 0.13 | inactive |
| GNA15 | 3 | -0.511 | 71.7 | -0.614 | inactive |
| GNA15 | 2 | -0.639 | 69.2 | -0.266 | inactive |
